These are yes or no findings as the source states them, for the method shown. Some results given as binding are weak or reduced against the parent protein; the word gives no strength. For some of these results: Sequences can lack the tags named with a protein.
B1: KIN7, full length, fused to a half of YFP (BiFC construct) (receptor, not shown: large carriers)
chain: SDLESDRRALLAVRNSVRGRPLLWNMSASSPCNWHGVHCDAGRVTALRLPGSGLFGSLPIGGIGNLTQLKTLSLRFNSLSGPIPSDFSNLVLLRYLYLQGNAFSGEIPSLLFTLPSIIRINLGENKFSGRIPDNVNSATRLVTLYLERNQLSGPIPEITLPLQQFNVSSNQLNGSIPSSLSSWPRTAFEGNTLCGKPLDTCEAESPNGGDAGGPNTPPEKKDSDKLSAGAIVGIVIGCVVGLLLLLLILFCLCRKRKKEENVPSRNVEAPVAAATSSAAIPKETVVVVPPAKATGSESGAVNKDLTFFVKSFGEFDLDGLLKASAEVLGKGTVGSSYKASFEHGLVVAVKRLRDVVVPEKEFRERLHVLGSMSHANLVTLIAYYFSRDEKLLVFEYMSKGSLSAILHGNKGNGRTPLNWETRAGIALGAARAISYLHSRDGTTSHGNIKSSNILLSDSYEAKVSDYGLAPIISSTSAPNRIDGYRAPEITDARKISQKADVYSFGVLILELLTGKSPTHQQLNEEGVDLPRWVQSVTEQQTPSDVLDPELTRYQPEGNENIIRLLKIGMSCTAQFPDSRPSMAEVTRLIEEVSHSSGSPNPVSD
B2: KIN7 with C-terminal mVenus or mCherry (FRET-FLIM construct) (receptor, not shown: large carriers)
chain: B1 chain
B3: BAK1 with C-terminal mVenus or mCherry (FRET-FLIM construct) (receptor, Arabidopsis, UniProt Q94F62 26-615, looked up, not shown: large carriers)
chain: NAEGDALSALKNSLADPNKVLQSWDATLVTPCTWFHVTCNSDNSVTRVDLGNANLSGQLVMQLGQLPNLQYLELYSNNITGTIPEQLGNLTELVSLDLYLNNLSGPIPSTLGRLKKLRFLRLNNNSLSGEIPRSLTAVLTLQVLDLSNNPLTGDIPVNGSFSLFTPISFANTKLTPLPASPPPPISPTPPSPAGSNRITGAIAGGVAAGAALLFAVPAIALAWWRRKKPQDHFFDVPAEEDPEVHLGQLKRFSLRELQVASDNFSNKNILGRGGFGKVYKGRLADGTLVAVKRLKEERTQGGELQFQTEVEMISMAVHRNLLRLRGFCMTPTERLLVYPYMANGSVASCLRERPESQPPLDWPKRQRIALGSARGLAYLHDHCDPKIIHRDVKAANILLDEEFEAVVGDFGLAKLMDYKDTHVTTAVRGTIGHIAPEYLSTGKSSEKTDVFGYGVMLLELITGQRAFDLARLANDDDVMLLDWVKGLLKEKKLEALVDVDLQGNYKDEEVEQLIQVALLCTQSSPMERPKMSEVVRMLEGDGLAERWEEWQKEEMFRQDFNYPTHHPAVSGWIIGDSTSQIENEYPSGPR
B4: ERD14 (Early-Response to Desiccation 14), full length, fused to a half of YFP (BiFC construct) (protein, not shown: large carriers)
chain: AEEIKNVPEQEVPKVATEESSAEVTDRGLFDFLGKKKDETKPEETPIASEFEQKVHISEPEPEVKHESLLEKLHRSDSSSSSSSEEEGSDGEKRKKKKEKKKPTTEVEVKEEEKKGFMEKLKEKLPGHKKPEDGSAVAAAPVVVPPPVEEAHPVEKKGILEKIKEKLPGYHPKTTVEEEKKDKE

Amino acid sequences for entries named in this document (tags omitted). A change or cut given only in a name is not applied to a line headed by its entry.
UniProt Q9LJF3: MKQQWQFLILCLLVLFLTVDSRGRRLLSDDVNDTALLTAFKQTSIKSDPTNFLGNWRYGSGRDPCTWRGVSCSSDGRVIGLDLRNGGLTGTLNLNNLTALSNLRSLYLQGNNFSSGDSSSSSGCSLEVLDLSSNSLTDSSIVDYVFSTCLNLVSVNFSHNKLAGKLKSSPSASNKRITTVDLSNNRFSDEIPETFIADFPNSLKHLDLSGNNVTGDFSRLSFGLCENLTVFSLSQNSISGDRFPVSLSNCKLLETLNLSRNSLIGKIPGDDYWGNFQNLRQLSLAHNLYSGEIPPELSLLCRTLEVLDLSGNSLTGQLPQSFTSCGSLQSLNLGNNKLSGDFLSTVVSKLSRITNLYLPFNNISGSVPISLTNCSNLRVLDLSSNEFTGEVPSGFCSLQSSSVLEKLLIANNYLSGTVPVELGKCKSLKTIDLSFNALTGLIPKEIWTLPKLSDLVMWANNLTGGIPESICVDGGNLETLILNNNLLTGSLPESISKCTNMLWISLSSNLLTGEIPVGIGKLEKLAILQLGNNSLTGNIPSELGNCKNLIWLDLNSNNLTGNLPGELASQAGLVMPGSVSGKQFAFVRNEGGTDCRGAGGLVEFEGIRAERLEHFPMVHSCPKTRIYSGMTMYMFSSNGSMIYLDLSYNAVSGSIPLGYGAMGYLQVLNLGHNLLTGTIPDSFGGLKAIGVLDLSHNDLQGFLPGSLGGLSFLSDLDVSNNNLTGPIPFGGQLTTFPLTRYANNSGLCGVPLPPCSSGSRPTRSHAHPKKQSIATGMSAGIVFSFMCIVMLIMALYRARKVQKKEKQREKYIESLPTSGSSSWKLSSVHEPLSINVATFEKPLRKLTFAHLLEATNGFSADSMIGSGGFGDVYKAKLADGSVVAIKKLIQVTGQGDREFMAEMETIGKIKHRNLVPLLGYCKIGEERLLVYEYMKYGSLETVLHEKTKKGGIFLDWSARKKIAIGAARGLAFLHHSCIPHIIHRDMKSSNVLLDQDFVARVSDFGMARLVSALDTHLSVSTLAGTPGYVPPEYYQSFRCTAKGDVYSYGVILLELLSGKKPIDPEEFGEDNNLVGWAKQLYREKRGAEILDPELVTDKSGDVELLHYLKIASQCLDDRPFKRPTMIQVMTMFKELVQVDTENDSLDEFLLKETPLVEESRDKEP

Experiments:
[1] = biological target: BRL3 (BRASSINOSTEROID RECEPTOR LIKE 3), full length, fused to a half of YFP (BiFC construct) (Arabidopsis thaliana) (UniProt Q9LJF3); assay: BiFC (split YFP) in Nicotiana benthamiana leaves, confocal microscopy
[2] = biological target: BRL3 (BRASSINOSTEROID RECEPTOR LIKE 3), full length, fused to a half of YFP (BiFC construct) (Arabidopsis thaliana) (UniProt Q9LJF3); assay: BiFC (split YFP) in Nicotiana benthamiana leaves
[3] = biological target: BRL3 with C-terminal mVenus or mCherry (FRET-FLIM construct) (Arabidopsis thaliana) (UniProt Q9LJF3); assay: FRET-FLIM, mVenus/mCherry fusions, fluorescence lifetimes of >20 images
[4] = biological target: BRL3 with C-terminal mVenus or mCherry (FRET-FLIM construct) (Arabidopsis thaliana) (UniProt Q9LJF3); assay: FRET-FLIM, mVenus/mCherry fusions

Binder	binding [1]	binding [2]	binding [3]	binding [4]
B1	binds	binds	–	–
B2	–	–	binds	binds
B3	–	–	binds	–
B4	binds	binds	–	–

From patent US20250340603A1, “A METHOD FOR MODULATING PLANT ADAPTATION TRAITS” (CRAG (Centre de Recerca en Agrigenòmica), priority 2021, published 2025)
